# According to PubChem BioAssay AID493014 (National Center for Advancing Translational Sciences (NCATS), 2011):
# The whole screen tested about 340,000 compounds, of which about 170 (0.05%) were called active. Inconclusive results, whose numbers are uncertain, are shown with a selection of clear calls. The call rests on the fitted dose curve; in most records, active means well fitted inhibition curve with a large enough effect in the signal ratio, with a control signal flat (not every such curve was filed as active); inconclusive means small, poorly fitted or top-dose-only effect, or effect the other way, or a change in a side signal; inactive means flat fitted curve, though single readings scatter; the % refers to the signal ratio. Potencies beside an inconclusive call are fits to weak or partial responses and may not hold up.
# Test: qHTS Assay to Find Inhibitors of Chronic Active B-Cell Receptor Signaling;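 on activity change, negative = inhibition: plate controls were basal doxycycline-induced cells for no effect and cells given 10 µM MG132 for full effect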
# Settings: ABC-DLBCL IkBa-CBG/CBR reporter, luminescence ratio (green luciferase fused to IkBa over red control in TMD8 lymphoma cells), 4 h; activity change, negative = inhibition: at 46.1 µM (top of the series) unless noted
# Procedure, shortened: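 Cell line TMD8 (human ABC DLBCL), stably expressing tet-inducible CBG68-IkBa fusion and CBR; IMDM/0.5% FBS; cpd up to 46 uM; dox induction, 4 h, 37C/5% CO2; dual luminescence; green/red ratio; MG132 control.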
# Potency means the concentration at half of the fitted maximal effect.
SMILES,"activity change, negative = inhibition",Potency
CCC(C)n1c(SCC(=O)NC2CCS(=O)(=O)C2)nc2ccccc2c1=O (stereo not drawn),inactive,
CCC(=O)NCCc1nc2cc(NC(=O)c3cccs3)ccc2n1C,,"inconclusive: 31.6 µM [falling, partial curve]"
Cc1c(C(=O)N(C)C)sc2c1c(=O)n(-c1ccc(Cl)c(Cl)c1)c(=O)n2CC(=O)Nc1cccc(C(F)(F)F)c1,inactive,
CCN(CC(=O)Nc1ccccc1OC)C(=O)c1cc(-c2ccccc2)nn1-c1ccccc1,inconclusive: 10.6%,
NC(=O)N/N=C/c1cn(-c2ccccc2)nc1-c1ccccc1,,"inconclusive: 22.4 µM [falling, single point]"
O=C(COC(=O)/C=C/c1cccc(Br)c1)NC1CCCCC1,inconclusive: -0.778%,
CN(C)C(CNc1ncnc2sccc12)c1ccccc1 (stereo not drawn),inactive,
CCCCC(=O)N(c1ccc(OC)cc1)C1C=CS(=O)(=O)C1 (stereo not drawn),inconclusive: 1.32%,
CC(=O)Nc1cccc(C(=O)NC2CCCc3c2cnn3-c2ccc(C(C)(C)C)cc2)c1 (stereo not drawn),inactive,
C/C=C\C=C\C(=O)N1CC2(CC(c3cccc(NC(=O)CC(c4ccccc4)c4ccccc4)c3)=NO2)C[C@H]1C(N)=O (stereo partly drawn),inactive,
CC1CCN(c2nncc3ccccc23)CC1,inconclusive: -12.2%,
Cc1c(Cl)cccc1NC(=O)CNC(=O)C1CC(=O)N(C2CCCC2)C1 (stereo not drawn),inconclusive: 3.21%,
CC(=O)N(Cc1cccnc1)c1nc2c(C)c(C)ccc2s1,,"inconclusive: 22.4 µM [falling, single point]"
O=C(N/N=C/c1ccc([N+](=O)[O-])o1)c1ccncc1,inconclusive: -17.7%,
COc1ccc(N2C(=O)CC(Sc3nnc(-c4ccccc4)o3)C2=O)cc1 (stereo not drawn),inconclusive: -16.7%,
O=C(c1ccc(Cn2cc(Br)cn2)cc1)N1CCN(c2ccccc2)CC1,inactive,
COC(=O)c1cc(Br)c(=O)n(CC(C)C)c1,inconclusive: -2.09%,
CC(C)Cn1c(SC(C)C(=O)Nc2ccc(N3CCOCC3)cc2)nc2ccccc21 (stereo not drawn),inconclusive: -0.218%,
Cc1ccc(Nc2c(F)c(F)c(F)c(F)c2C(=O)O)cc1,inconclusive: 20.7%,
CCCCSc1nnc(-c2ccccc2)c2ccccc12,inconclusive: 14.8%,
CCOc1ccc(N2C(=O)C3Sc4[nH]c(=O)sc4C(/C=C/c4ccccc4)C3C2=O)cc1 (stereo not drawn),,"inconclusive: 1.46 µM [rising, full curve, poor fit]"
CCOc1ccc(Nc2nc(N)c3ccccc3n2)cc1,,"inconclusive: 22.4 µM [falling, single point]"
COc1ccc(OC)c(C(C(=O)NCc2ccco2)N(C(=O)Cn2nnc3ccccc32)C(C)C)c1 (stereo not drawn),inconclusive: 4.93%,
COc1ccc(Nc2nccc(OC)c2C#N)cc1,inconclusive: 10.3%,
O=c1c(Cl)c(Cl)cnn1Cc1ccc(F)cc1,,"inconclusive: 0.562 µM [rising, full curve]"
CCCc1cc(C(N)=O)c(NC(=O)c2ccoc2C)s1,inconclusive: 13.8%,
Cc1ccc(NS(=O)(=O)c2cc(Br)cc3c2N(C(=O)C2CC2)CC3)cc1C,,"inconclusive: 35.5 µM [falling, single point]"

# Already shown: an excerpt of the list.
SMILES,"activity change, negative = inhibition",Potency
CCN(CC(=O)Nc1ccccc1OC)C(=O)c1cc(-c2ccccc2)nn1-c1ccccc1,inconclusive: 10.6%,
NC(=O)N/N=C/c1cn(-c2ccccc2)nc1-c1ccccc1,,"inconclusive: 22.4 µM [falling, single point]"
O=C(COC(=O)/C=C/c1cccc(Br)c1)NC1CCCCC1,inconclusive: -0.778%,

# (listing goes on)

SMILES,"activity change, negative = inhibition",Potency
CSc1cccc(NC(=S)N(CCN(C)C)C(C)c2ccncc2)c1 (stereo not drawn),inactive,
CC(C)NCC(O)Cn1c2c(c3ccccc31)CCc1c-2cnn1-c1ccccc1 (stereo not drawn),inactive,
O=C(CSc1nc2ncc(Cl)cc2[nH]1)Nc1ccccc1-c1ccccc1,inconclusive: -3.72%,
COc1ccc(N2CCN(c3ncnc4sc(C(=O)NCC5CCCO5)c(C)c34)CC2)cc1 (stereo not drawn),inactive,
Cc1ccsc1/C=N/Nc1cccc(C(=O)O)c1,,"inconclusive: 3.16 µM [falling, partial curve, poor fit]"
COc1ccccc1CNC(=O)c1cc(-c2ccccc2)nn1Cc1cc(C)no1,inconclusive: 8.26%,
CC(C)CS(=O)(=O)C1=NN2C(=N)/C(=C\c3ccc(OC(=O)c4ccco4)cc3)C(=O)N=C2S1,inactive,
CCOC(=O)N1CCC(NC(=O)c2cc3c(-c4ccc(Cl)cc4)nn(C)c3s2)CC1,inconclusive: 9.05%,
O=c1cnnc(N/N=C/C2CC=CCC2)[nH]1 (stereo not drawn),,"inconclusive: 35.5 µM [falling, single point]"
CCc1c(C)nc2cc(-c3cc(OC)cc(OC)c3)nn2c1N1CCCC1,inactive,
Clc1ccccc1CSC1=NCCCN1,inactive,
Cc1nn(CC(=O)OCC(=O)c2ccc(OC(F)F)cc2)c(C)c1[N+](=O)[O-],inactive,
Cc1ccc(C(=O)C(NC(=O)c2ccco2)N2CCOCC2)cc1 (stereo not drawn),inconclusive: 2.36%,
CC(=O)NNc1cccc(Cl)n1,inconclusive: 3.53%,
Cn1ccnc1SC(=O)N1c2ccccc2Sc2ccccc21,inconclusive: 19.1%,
CC1=NN(c2ccc(Cl)c(C(=O)O)c2)C(=O)/C1=C/c1ccc(-c2ccccc2[N+](=O)[O-])o1,inconclusive: -14.6%,
COc1ccc(C)cc1Nc1n[n+](-c2ccccc2)c(-c2ccc(SC)cc2)s1,,"inconclusive: 35.5 µM [cytotoxic, single point]"
COC(=O)[C@@H](Cc1ccccc1)NC(=O)Cn1cnc2c(SC)nc(N)nc21,inactive,
CC(N=C1CC(C)(C)CC(=O)/C1=C(/O)CCCN1C(=O)c2ccccc2C1=O)C(=O)O (stereo not drawn),,"inconclusive: 11.2 µM [falling, partial curve, poor fit]"
O=C(O)c1ccc(N/N=C/C=C/c2ccc([N+](=O)[O-])o2)cc1,inconclusive: -172%,
C/C(=N/NC(=O)OC(C)(C)C)c1ccco1,inconclusive: -4.04%,
O=[N+]([O-])c1ccc(N2CCN(c3ccccc3)CC2)cc1,inconclusive: 12.8%,
O=C(c1ccco1)N1CCN(c2nc3ccsc3c(=O)s2)CC1,inconclusive: 7.18%,
CC(C)(C)c1ccccc1NC(=O)Cn1c(=O)cnc2ccccc21,inconclusive: -1.17%,
CC(=O)c1cccc(Nc2cc(C)nc3c(C)cccc23)c1,inconclusive: -20.6%,
CN(C)c1ccc(C(=O)/C=C/c2cccnc2)cc1,inconclusive: -11.9%,
